# The other results are listed elsewhere or left out.
# B1: SUN4 (Saccharomyces cerevisiae), P53616 (protein)
# chain: MGSSHHHHHHSSGLVPRGSHNGSIYGDLADFSGPYEKFEDGTIPCGQFPSGQGVIPISWLDEGGWSGVENTDTSTGGSCKEGSYCSYACQPGMSKTQWPSDQPSDGRSIGGLLCKDGYLYRSNTDTDYLCEWGVDAAYVVSELSNDVAICRTDYPGTENMVIPTYVQAGDSLPLTVVDQDTYYTWQGLKTSAQYYVNNAGISVEDACVWGSSSSGVGNWAPLNFGAGSSDGVAYLSLIPNPNNGNALNFNVKIVAADDSSTVNGECIYENGSFSGGSDGCTVSVTAGKAKFVLYN
# Assays:
# Test in all cases: glycan array binding signal (z-score within array); higher = stronger binding
# Conditions in all cases: glycan notation: IUPAC condensed, linker removed
# [1] = biological target: Fuc(a1-2)[GalNAc(b1-3)]Gal
# Method in brief: (§1)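 Negative Z-scores can be read as non-binding. The Z-score is calculated within each array and then averaged across arrays of one protein sequence at different concentrations or buffers and across linkers. Arrays, 3228 in all, were curated from the Consortium for Functional Glycomics database and kept only where the protein sequence was available.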
# [2] = biological target: Fuc(a1-3)GlcNAc
# Method in brief: as §1
# [3] = biological target: Fuc(a1-3)[Gal(b1-4)]Glc6S
# Method in brief: as §1
# [4] = biological target: Fuc(a1-3)[Gal(b1-4)]GlcNAc
# Method in brief: as §1
# [5] = biological target: Fuc(a1-3)[Gal(b1-4)]GlcNAc(b1-2)Man
# Method in brief: as §1
# [6] = biological target: Fuc(a1-3)[Gal(b1-4)]GlcNAc(b1-2)Man(a1-3)[Fuc(a1-3)[Gal(b1-4)]GlcNAc(b1-2)Man(a1-6)]Man(b1-4)GlcNAc(b1-4)GlcNAc
# Method in brief: as §1
# [7] = biological target: Fuc(a1-3)[Gal(b1-4)]GlcNAc(b1-2)Man(a1-3)[Fuc(a1-3)[Gal(b1-4)]GlcNAc(b1-2)Man(a1-6)]Man(b1-4)GlcNAc(b1-4)[Fuc(a1-6)]GlcNAc
# Method in brief: as §1
# [8] = biological target: Fuc(a1-3)[Gal(b1-4)]GlcNAc(b1-3)Gal(b1-3)[Fuc(a1-4)]GlcNAc
# Method in brief: as §1
# [9] = biological target: Fuc(a1-3)[Gal(b1-4)]GlcNAc(b1-3)Gal(b1-4)[Fuc(a1-3)]GlcNAc
# Method in brief: as §1
# [10] = biological target: Fuc(a1-3)[Gal(b1-4)]GlcNAc(b1-3)Gal(b1-4)[Fuc(a1-3)]GlcNAc(b1-3)Gal(b1-4)[Fuc(a1-3)]GlcNAc
# Method in brief: as §1
# [11] = biological target: Fuc(a1-3)[Gal(b1-4)]GlcNAc(b1-3)GalNAc
# Method in brief: as §1
# [12] = biological target: Fuc(a1-3)[Gal(b1-4)]GlcNAc(b1-6)GalNAc
# Method in brief: as §1
# [13] = biological target: Fuc(a1-3)[Gal(b1-4)]GlcNAc(b1-6)[Gal(b1-3)GlcNAc(b1-3)]Gal(b1-4)Glc
# Method in brief: as §1
# [14] = biological target: Fuc(a1-3)[Gal(b1-4)]GlcNAc6S
# Method in brief: as §1
# [15] = biological target: Fuc(a1-3)[Gal3S(b1-4)]Glc
# Method in brief: as §1
# [16] = biological target: Fuc(a1-3)[Gal3S(b1-4)]GlcNAc
# Method in brief: as §1
# [17] = biological target: Fuc(a1-3)[Gal3S(b1-4)]GlcNAc6S
# Method in brief: as §1
# [18] = biological target: Fuc(a1-3)[GalNAc(b1-4)]GlcNAc
# Method in brief: as §1
# [19] = biological target: Fuc(a1-3)[GalNAc(b1-4)]GlcNAc6S
# Method in brief: as §1
# [20] = biological target: Fuc(a1-4)GlcNAc
# Method in brief: as §1
# [21] = biological target: Fuc(b1-3)GlcNAc
# Method in brief: as §1
# [22] = biological target: Gal(a1-2)Gal
# Method in brief: as §1
# [23] = biological target: Gal(a1-3)Gal
# Method in brief: as §1
# [24] = biological target: Gal(a1-3)Gal(b1-3)GlcNAc
# Method in brief: as §1
# [25] = biological target: Gal(a1-3)Gal(b1-3)GlcNAc(b1-2)Man
# Method in brief: as §1
# [26] = biological target: Gal(a1-3)Gal(b1-3)GlcNAc(b1-2)Man(a1-3)[Gal(a1-3)Gal(b1-3)GlcNAc(b1-2)Man(a1-6)]Man(b1-4)GlcNAc(b1-4)GlcNAc
# Method in brief: as §1
# [27] = biological target: Gal(a1-3)Gal(b1-3)GlcNAc(b1-3)GalNAc
# Method in brief: as §1
# [28] = biological target: Gal(a1-3)Gal(b1-3)GlcNAc(b1-6)GalNAc
# Method in brief: as §1
# [29] = biological target: Gal(a1-3)Gal(b1-3)[Fuc(a1-4)]GlcNAc(b1-2)Man(a1-3)[Gal(a1-3)Gal(b1-3)[Fuc(a1-4)]GlcNAc(b1-2)Man(a1-6)]Man(b1-4)GlcNAc(b1-4)GlcNAc
# Method in brief: as §1
# [30] = biological target: Gal(a1-3)Gal(b1-4)Glc
# Method in brief: as §1
# [31] = biological target: Gal(a1-3)Gal(b1-4)GlcNAc
# Method in brief: as §1
# [32] = biological target: Gal(a1-3)Gal(b1-4)GlcNAc(b1-2)Man
# Method in brief: as §1
# [33] = biological target: Gal(a1-3)Gal(b1-4)GlcNAc(b1-2)Man(a1-3)[Gal(a1-3)Gal(b1-4)GlcNAc(b1-2)Man(a1-6)]Man(b1-4)GlcNAc(b1-4)GlcNAc
# Method in brief: as §1
# [34] = biological target: Gal(a1-3)Gal(b1-4)GlcNAc(b1-3)GalNAc
# Method in brief: as §1
# [35] = biological target: Gal(a1-3)Gal(b1-4)GlcNAc(b1-6)GalNAc
# Method in brief: as §1
# [36] = biological target: Gal(a1-3)Gal(b1-4)[Fuc(a1-3)]GlcNAc
# Method in brief: as §1
# [37] = biological target: Gal(a1-3)Gal(b1-4)[Fuc(a1-3)]GlcNAc(b1-2)Man(a1-3)[Gal(a1-3)Gal(b1-4)[Fuc(a1-3)]GlcNAc(b1-2)Man(a1-6)]Man(b1-4)GlcNAc(b1-4)GlcNAc
# Method in brief: as §1
binder,measurement,setting,value
B1,glycan array binding signal (z-score),[1],-0.107
same,glycan array binding signal (z-score),[2],-1.58
same,glycan array binding signal (z-score),[3],-0.292
same,glycan array binding signal (z-score),[4],0.127
same,glycan array binding signal (z-score),[5],-1.22
same,glycan array binding signal (z-score),[6],-0.567
same,glycan array binding signal (z-score),[7],0.398
same,glycan array binding signal (z-score),[8],0.681
same,glycan array binding signal (z-score),[9],0.919
same,glycan array binding signal (z-score),[10],-0.338
same,glycan array binding signal (z-score),[11],0.304
same,glycan array binding signal (z-score),[12],-0.013
same,glycan array binding signal (z-score),[13],-0.881
same,glycan array binding signal (z-score),[14],0.374
same,glycan array binding signal (z-score),[15],0.168
same,glycan array binding signal (z-score),[16],-0.344
same,glycan array binding signal (z-score),[17],0.473
same,glycan array binding signal (z-score),[18],-0.152
same,glycan array binding signal (z-score),[19],-0.713
same,glycan array binding signal (z-score),[20],-0.729
same,glycan array binding signal (z-score),[21],0.224
same,glycan array binding signal (z-score),[22],0.325
same,glycan array binding signal (z-score),[23],-0.684
same,glycan array binding signal (z-score),[24],-0.29
same,glycan array binding signal (z-score),[25],1.08
same,glycan array binding signal (z-score),[26],1.63
same,glycan array binding signal (z-score),[27],0.338
same,glycan array binding signal (z-score),[28],0.361
same,glycan array binding signal (z-score),[29],1.91
same,glycan array binding signal (z-score),[30],-0.816
same,glycan array binding signal (z-score),[31],-1.3
same,glycan array binding signal (z-score),[32],-0.924
same,glycan array binding signal (z-score),[33],-0.15
same,glycan array binding signal (z-score),[34],-0.15
same,glycan array binding signal (z-score),[35],0.348
same,glycan array binding signal (z-score),[36],-1.48
same,glycan array binding signal (z-score),[37],3.09

# 2 entries drawn at random from the list so far, as already listed:
binder,measurement,setting,value
B1,glycan array binding signal (z-score),[4],0.127
same,glycan array binding signal (z-score),[33],-0.15

# Source: the supplement of paper PMC8728848
